Data: paper PMC10361659
These are yes or no findings as the source states them, for the method shown. In cells and extracts the contact can be indirect. Some binding calls cover weakened binding; strength is not graded here.

Amino acid sequences for entries named in this document (tags omitted). Residues count along the entry.
UniProt P02778, residues 22-98: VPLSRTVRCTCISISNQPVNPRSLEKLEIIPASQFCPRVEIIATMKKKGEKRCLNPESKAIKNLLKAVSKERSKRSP

T1: glutathione peroxidase 3 (human (endogenous in the human SSC line)) (UniProt P22352)
T1 sequence: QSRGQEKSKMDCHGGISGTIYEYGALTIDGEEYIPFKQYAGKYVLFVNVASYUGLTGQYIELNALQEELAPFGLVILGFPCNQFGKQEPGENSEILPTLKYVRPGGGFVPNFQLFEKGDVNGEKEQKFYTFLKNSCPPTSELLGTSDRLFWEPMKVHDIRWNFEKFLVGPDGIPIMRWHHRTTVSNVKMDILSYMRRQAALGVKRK


What was measured:
[1] = target: T1, glutathione peroxidase 3 (human (endogenous in the human SSC line)); assay: co-IP; endogenous proteins in human SSC line lysate (IP lysis buffer, Thermo Co-IP kit); IP antibody against GPx3 or CXCL10 at 4°C overnight; magnetic A/G beads 1 h at room temperature; Western blots with antibodies against GPx3 or CXCL10
[2] = target: CXCL10 (human (endogenous in the human SSC line)) (UniProt P02778); assay: as above

binding [1] | binding [2] | Molecule
binds | – | CXCL10 (from UniProt P02778 22-98)
– | binds | glutathione peroxidase 3 (protein, UniProt P22352 21-226) QSRGQEKSKMDCHGGISGTIYEYGALTIDGEEYIPFKQYAGKYVLFVNVASYUGLTGQYIELNALQEELAPFGLVILGFPCNQFGKQEPGENSEILPTLKYVRPGGGFVPNFQLFEKGDVNGEKEQKFYTFLKNSCPPTSELLGTSDRLFWEPMKVHDIRWNFEKFLVGPDGIPIMRWHHRTTVSNVKMDILSYMRRQAALGVKRK
